In data set [1] the target is T1, TRB1 (Arabidopsis thaliana) (UniProt Q8VWK4).
T1 sequence (looked up): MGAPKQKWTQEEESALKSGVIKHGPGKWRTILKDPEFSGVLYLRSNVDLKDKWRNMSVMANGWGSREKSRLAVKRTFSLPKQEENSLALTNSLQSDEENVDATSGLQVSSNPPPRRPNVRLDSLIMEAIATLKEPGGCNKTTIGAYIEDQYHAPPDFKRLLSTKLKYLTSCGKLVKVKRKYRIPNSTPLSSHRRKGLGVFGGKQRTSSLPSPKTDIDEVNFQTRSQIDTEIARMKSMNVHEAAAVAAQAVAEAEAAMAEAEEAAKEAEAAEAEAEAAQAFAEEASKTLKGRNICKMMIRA
Put plainly: ITC. The settings on record: Kd only in figure; ITC: 20 mM Tris-HCl pH 7.5, 150 mM NaCl, 25 C, 5 uM protein, 100 uM DNA; recombinant protein; residues 1-300; protein details: His.

By UniProt entry, the sequences of proteins in these tests, tags left out. Where a name states a change or a piece, a line headed by the entry shows the natural chain unless it says otherwise.
UniProt Q8GUI6: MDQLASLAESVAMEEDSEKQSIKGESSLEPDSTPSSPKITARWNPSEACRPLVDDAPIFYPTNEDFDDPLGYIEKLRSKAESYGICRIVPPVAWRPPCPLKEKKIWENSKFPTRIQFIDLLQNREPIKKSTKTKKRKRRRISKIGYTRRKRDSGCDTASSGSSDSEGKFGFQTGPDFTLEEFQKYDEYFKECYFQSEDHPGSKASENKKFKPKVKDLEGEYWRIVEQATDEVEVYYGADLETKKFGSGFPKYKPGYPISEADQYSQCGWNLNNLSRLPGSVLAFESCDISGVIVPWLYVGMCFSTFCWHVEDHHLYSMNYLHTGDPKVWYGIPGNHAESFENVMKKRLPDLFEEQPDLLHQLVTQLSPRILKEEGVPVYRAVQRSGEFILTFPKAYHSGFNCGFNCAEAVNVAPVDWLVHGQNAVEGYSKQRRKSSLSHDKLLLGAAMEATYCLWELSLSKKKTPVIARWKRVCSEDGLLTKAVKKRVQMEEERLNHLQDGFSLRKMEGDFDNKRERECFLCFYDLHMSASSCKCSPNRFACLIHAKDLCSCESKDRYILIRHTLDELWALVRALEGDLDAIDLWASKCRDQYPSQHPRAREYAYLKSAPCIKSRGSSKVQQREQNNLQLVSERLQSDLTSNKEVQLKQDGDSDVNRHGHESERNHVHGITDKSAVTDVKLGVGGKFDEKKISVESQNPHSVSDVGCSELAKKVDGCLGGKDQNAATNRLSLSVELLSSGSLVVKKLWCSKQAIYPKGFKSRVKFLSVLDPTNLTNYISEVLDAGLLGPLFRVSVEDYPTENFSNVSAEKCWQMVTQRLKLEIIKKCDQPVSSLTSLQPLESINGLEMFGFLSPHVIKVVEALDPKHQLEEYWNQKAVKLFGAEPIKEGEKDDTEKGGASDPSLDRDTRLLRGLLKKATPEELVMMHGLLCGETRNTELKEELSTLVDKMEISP

Data set [2] addresses T2, HTH1 (Arabidopsis thaliana) (UniProt Q9SHL4).
T2 sequence (looked up): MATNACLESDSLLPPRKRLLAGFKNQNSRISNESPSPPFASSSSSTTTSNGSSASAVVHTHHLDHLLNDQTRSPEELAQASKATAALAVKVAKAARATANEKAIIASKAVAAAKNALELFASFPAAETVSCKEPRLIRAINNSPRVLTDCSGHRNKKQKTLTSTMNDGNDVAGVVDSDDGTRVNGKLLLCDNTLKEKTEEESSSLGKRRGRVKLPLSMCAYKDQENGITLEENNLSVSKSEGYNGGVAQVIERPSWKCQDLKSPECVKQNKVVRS
Put plainly: EMSA. The settings on record: EMSA: 10 mM Tris-HCl pH 7.5, 50 mM NaCl, 1 mM EDTA, 5% glycerol, 1 mM DTT, 25 C, 30 min, 20 ng DNA + 1 ug protein; recombinant protein; residues 1-275; label: Cy5 at 5' of strand 1. Background: A gel shift assay detects complexes by their altered migration in electrophoresis.

For data set [3], the target named is T3, HTH2/TRBIP1 (Arabidopsis thaliana) (UniProt O81784).
T3 sequence (looked up): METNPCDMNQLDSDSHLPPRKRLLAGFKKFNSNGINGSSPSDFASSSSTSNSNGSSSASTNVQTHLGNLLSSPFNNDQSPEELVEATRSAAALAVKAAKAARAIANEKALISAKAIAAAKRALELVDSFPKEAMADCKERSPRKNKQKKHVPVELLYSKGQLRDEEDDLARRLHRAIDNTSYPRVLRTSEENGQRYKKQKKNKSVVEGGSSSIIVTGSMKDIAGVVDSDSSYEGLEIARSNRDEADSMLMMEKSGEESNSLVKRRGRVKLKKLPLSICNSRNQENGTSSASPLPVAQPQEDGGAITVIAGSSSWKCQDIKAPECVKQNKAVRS
Put plainly: EMSA. The settings on record: EMSA: 10 mM Tris-HCl pH 7.5, 50 mM NaCl, 1 mM EDTA, 5% glycerol, 1 mM DTT, 25 C, 30 min, 20 ng DNA + 1 ug protein; recombinant protein; residues 1-333; label: Cy5 at 5' of strand 1.

Data set [4] has as its target T1, TRB1 (Arabidopsis thaliana). The data set can be described thus: EMSA. The settings on record: EMSA: 10 mM Tris-HCl pH 7.5, 50 mM NaCl, 1 mM EDTA, 5% glycerol, 1 mM DTT, 25 C, 30 min, 20 ng DNA + 1 ug protein; recombinant protein; residues 1-300; protein details: His; label: Cy5 at 5' of strand 1.
In data set [5] the target is T4, ZDP2 (Arabidopsis thaliana) (UniProt Q9LRN9).
T4 sequence (looked up): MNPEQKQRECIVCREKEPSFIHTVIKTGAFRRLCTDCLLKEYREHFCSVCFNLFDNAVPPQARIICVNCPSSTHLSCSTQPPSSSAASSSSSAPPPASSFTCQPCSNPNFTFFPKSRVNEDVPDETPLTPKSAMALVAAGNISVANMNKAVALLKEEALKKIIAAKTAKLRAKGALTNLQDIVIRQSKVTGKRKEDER
Put plainly: EMSA. The settings on record: EMSA: 10 mM Tris-HCl pH 7.5, 50 mM NaCl, 1 mM EDTA, 5% glycerol, 1 mM DTT, 25 C, 30 min, 20 ng DNA + 1 ug protein; recombinant protein; residues 1-198; label: Cy5 at 5' of strand 1.

In data set [6] the target is JMJ14 (Arabidopsis thaliana) (UniProt Q8GUI6). Put plainly: EMSA. The note with it: EMSA: 10 mM Tris-HCl pH 7.5, 50 mM NaCl, 1 mM EDTA, 5% glycerol, 1 mM DTT, 25 C, 30 min, 20 ng DNA + 1 ug protein; recombinant protein; residues 1-954; protein details: FLAG; label: Cy5 at 5' of strand 1.
Data set [7] deals with T5, ICU11 (Arabidopsis thaliana) (UniProt Q3ED68).
T5 sequence (looked up): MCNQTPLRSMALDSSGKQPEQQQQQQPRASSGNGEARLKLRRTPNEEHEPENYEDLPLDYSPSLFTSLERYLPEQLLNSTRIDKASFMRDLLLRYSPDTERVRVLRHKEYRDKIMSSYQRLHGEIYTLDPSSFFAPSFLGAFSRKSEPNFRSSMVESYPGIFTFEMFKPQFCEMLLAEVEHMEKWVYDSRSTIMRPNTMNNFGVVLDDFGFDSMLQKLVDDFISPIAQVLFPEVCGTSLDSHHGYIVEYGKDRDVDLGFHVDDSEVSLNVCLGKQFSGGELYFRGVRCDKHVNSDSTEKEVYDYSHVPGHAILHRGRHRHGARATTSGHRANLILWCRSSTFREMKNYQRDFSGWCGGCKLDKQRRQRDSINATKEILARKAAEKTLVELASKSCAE
Put plainly: EMSA. The settings on record: EMSA: 10 mM Tris-HCl pH 7.5, 50 mM NaCl, 1 mM EDTA, 5% glycerol, 1 mM DTT, 25 C, 30 min, 20 ng DNA + 1 ug protein; recombinant protein; residues 1-397; label: Cy5 at 5' of strand 1.

The target in data set [8] is T6, HTH3 (Arabidopsis thaliana) (UniProt Q9FKY2).
T6 sequence (looked up): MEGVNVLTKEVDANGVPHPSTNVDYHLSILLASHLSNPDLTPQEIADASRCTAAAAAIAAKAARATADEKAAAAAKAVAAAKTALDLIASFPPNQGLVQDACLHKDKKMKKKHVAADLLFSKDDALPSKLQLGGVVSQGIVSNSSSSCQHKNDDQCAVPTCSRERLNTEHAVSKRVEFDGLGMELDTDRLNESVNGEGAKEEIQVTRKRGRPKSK
The data set can be described thus: EMSA. The settings on record: EMSA: 10 mM Tris-HCl pH 7.5, 50 mM NaCl, 1 mM EDTA, 5% glycerol, 1 mM DTT, 25 C, 30 min, 20 ng DNA + 1 ug protein; recombinant protein; residues 1-215; label: Cy5 at 5' of strand 1.

For data set [9], the target named is TRB1-5 (Arabidopsis thaliana) (UniProt Q8VWK4). The data set can be described thus: EMSA. The note with it: EMSA: 10 mM Tris-HCl pH 7.5, 50 mM NaCl, 1 mM EDTA, 5% glycerol, 1 mM DTT, 25 C, 30 min, 20 ng DNA + 1 ug protein; recombinant protein; protein details: His; label: Cy5 at 5' of strand 1.
Data set [10] deals with TRB1-3 (Arabidopsis thaliana) (UniProt Q8VWK4). The data set can be described thus: EMSA. The settings on record: EMSA: 10 mM Tris-HCl pH 7.5, 50 mM NaCl, 1 mM EDTA, 5% glycerol, 1 mM DTT, 25 C, 30 min, 20 ng DNA + 1 ug protein; recombinant protein; protein details: His; label: Cy5 at 5' of strand 1.
The test system of data set [11] is TRB1-2 (Arabidopsis thaliana). Put plainly: EMSA. The note with it: EMSA: 10 mM Tris-HCl pH 7.5, 50 mM NaCl, 1 mM EDTA, 5% glycerol, 1 mM DTT, 25 C, 30 min, 20 ng DNA + 1 ug protein; recombinant protein; protein details: His; label: Cy5 at 5' of strand 1.
Data set [12] deals with TRB1-4 (Arabidopsis thaliana). The data set can be described thus: EMSA. The note with it: EMSA: 10 mM Tris-HCl pH 7.5, 50 mM NaCl, 1 mM EDTA, 5% glycerol, 1 mM DTT, 25 C, 30 min, 20 ng DNA + 1 ug protein; recombinant protein; protein details: His; label: Cy5 at 5' of strand 1.
The target in data set [13] is TRB1-6 (Arabidopsis thaliana) (UniProt Q8VWK4). Put plainly: EMSA. The note with it: EMSA: 10 mM Tris-HCl pH 7.5, 50 mM NaCl, 1 mM EDTA, 5% glycerol, 1 mM DTT, 25 C, 30 min, 20 ng DNA + 1 ug protein; recombinant protein; protein details: His; label: Cy5 at 5' of strand 1.
The target of data set [14] is T7, NAC050-N (Arabidopsis thaliana) (UniProt Q9SQX9).
T7 sequence (looked up, limits assumed): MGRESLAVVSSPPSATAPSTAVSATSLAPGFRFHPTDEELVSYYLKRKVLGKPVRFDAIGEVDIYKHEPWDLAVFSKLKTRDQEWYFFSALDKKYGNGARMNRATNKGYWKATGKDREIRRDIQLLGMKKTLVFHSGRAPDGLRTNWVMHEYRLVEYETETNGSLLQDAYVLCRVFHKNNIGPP
Put plainly: EMSA. The note with it: EMSA: 10 mM Tris-HCl pH 7.5, 50 mM NaCl, 1 mM EDTA, 5% glycerol, 1 mM DTT, 25 C, 30 min, 20 ng DNA + 1 ug protein; recombinant protein; protein details: MBP; label: Cy5 at 5' of strand 1.

Data set [15] deals with T8, TRB1-MybΔ del1-60 (Arabidopsis thaliana) (UniProt Q8VWK4).
T8 sequence (looked up): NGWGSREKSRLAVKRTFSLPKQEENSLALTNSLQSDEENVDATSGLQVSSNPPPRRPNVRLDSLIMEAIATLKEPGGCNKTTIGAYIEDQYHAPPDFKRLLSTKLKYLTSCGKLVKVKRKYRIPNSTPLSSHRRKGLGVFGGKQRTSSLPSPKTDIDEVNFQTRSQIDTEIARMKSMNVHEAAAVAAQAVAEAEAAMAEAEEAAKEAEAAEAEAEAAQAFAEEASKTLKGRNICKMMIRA
Put plainly: EMSA. The note with it: EMSA: 10 mM Tris-HCl pH 7.5, 50 mM NaCl, 1 mM EDTA, 5% glycerol, 1 mM DTT, 25 C, 30 min, 20 ng DNA + 1 ug protein; recombinant protein; residues 61-300; label: Cy5 at 5' of strand 1.

For some assays here: No signal at the amounts used counts as a negative. For some assays here: At least one verdict rests on a figure or table, not on a statement of the authors. For some assays here: Tags and fusion partners may be left off the protein sequences shown. For some assays here: The comparison behind a weaker result is the experiment's own reference, which may not be listed here. For some assays here: The exact form of at least one protein or probe is not confirmed.

As for “ATCGAATTTAGGGCAAAATG (double strand) [Probe 1 for ITC]”, in data set [1], the binding result is “binds”.

As for “GACGCTTGAGCCTCAAGAAAT (double strand) [Probe 2 (P2)]”, the binding result in data set [2] is listed as “binds”; in [3], “binds”; in data set [4], “no binding”; in data set [5] it was “no binding”; in data set [6] it was “no binding”; in [7], “no binding”. Further, the binding result in [8] is on record as “binds”.

Take “ATCGAATTTAGGGCAAAATG (double strand) [Probe 1 (P1)]”: the binding result in [9] was “no binding”; in data set [10], “no binding”; in [2], “binds”; in data set [3], “binds”; in data set [11], “no binding”; in [12], “no binding”. Moreover, the binding result in [5] is “no binding”; in [13], “no binding”; in data set [14] it was “no binding”; in [6], “no binding”; in data set [7] it was “no binding”; in data set [15], “binds more weakly”. In data set [8], the binding result is reported as “binds”.

As for “TCCGATTGTCTTTTCGTTTT (double strand) [Probe 3 (P3)]”, the binding result in [2] is “binds”; in data set [3], “binds”; in data set [4] it was “no binding”; in data set [5], “no binding”; in data set [14], “no binding”; in data set [6], “no binding”. Also, the binding result is “no binding” in data set [7] and “binds” in data set [8].

For the origin of these results see publication PMC12713088.
